Source: the supplement of paper PMC10849652
The other results are listed elsewhere or left out.

Amino acid sequences for entries named in this document (tags omitted). A change or cut given only in a name is not applied to a line headed by its entry.
UniProt P57682: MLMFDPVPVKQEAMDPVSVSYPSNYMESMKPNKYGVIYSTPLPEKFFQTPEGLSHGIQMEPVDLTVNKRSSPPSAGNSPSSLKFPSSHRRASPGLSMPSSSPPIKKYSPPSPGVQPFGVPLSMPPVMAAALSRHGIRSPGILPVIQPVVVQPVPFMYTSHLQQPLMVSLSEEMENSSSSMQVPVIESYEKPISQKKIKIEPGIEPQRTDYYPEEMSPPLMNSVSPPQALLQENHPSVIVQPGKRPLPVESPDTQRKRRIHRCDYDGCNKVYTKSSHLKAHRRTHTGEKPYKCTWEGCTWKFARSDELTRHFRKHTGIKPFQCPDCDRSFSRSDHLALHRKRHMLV
UniProt O00522: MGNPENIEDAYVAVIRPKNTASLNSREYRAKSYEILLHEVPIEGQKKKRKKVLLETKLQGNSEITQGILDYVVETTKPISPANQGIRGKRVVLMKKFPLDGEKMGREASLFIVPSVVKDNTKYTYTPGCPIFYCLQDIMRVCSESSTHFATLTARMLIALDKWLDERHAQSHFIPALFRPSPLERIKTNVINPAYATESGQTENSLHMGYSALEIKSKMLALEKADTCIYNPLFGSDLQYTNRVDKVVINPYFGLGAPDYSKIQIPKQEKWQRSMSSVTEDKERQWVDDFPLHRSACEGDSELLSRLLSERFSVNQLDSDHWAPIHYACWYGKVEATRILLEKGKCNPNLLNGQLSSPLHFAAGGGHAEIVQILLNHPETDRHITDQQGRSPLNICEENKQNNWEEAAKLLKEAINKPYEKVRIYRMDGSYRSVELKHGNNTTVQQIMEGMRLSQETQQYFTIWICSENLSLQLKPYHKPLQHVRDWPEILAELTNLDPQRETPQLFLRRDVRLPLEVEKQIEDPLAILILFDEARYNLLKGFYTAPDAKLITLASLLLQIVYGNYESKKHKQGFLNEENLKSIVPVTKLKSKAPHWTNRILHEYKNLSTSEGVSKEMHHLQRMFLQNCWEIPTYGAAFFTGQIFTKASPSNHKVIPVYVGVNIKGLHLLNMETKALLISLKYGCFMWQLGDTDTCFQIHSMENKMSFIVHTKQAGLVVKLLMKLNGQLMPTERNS
UniProt Q9BVV6: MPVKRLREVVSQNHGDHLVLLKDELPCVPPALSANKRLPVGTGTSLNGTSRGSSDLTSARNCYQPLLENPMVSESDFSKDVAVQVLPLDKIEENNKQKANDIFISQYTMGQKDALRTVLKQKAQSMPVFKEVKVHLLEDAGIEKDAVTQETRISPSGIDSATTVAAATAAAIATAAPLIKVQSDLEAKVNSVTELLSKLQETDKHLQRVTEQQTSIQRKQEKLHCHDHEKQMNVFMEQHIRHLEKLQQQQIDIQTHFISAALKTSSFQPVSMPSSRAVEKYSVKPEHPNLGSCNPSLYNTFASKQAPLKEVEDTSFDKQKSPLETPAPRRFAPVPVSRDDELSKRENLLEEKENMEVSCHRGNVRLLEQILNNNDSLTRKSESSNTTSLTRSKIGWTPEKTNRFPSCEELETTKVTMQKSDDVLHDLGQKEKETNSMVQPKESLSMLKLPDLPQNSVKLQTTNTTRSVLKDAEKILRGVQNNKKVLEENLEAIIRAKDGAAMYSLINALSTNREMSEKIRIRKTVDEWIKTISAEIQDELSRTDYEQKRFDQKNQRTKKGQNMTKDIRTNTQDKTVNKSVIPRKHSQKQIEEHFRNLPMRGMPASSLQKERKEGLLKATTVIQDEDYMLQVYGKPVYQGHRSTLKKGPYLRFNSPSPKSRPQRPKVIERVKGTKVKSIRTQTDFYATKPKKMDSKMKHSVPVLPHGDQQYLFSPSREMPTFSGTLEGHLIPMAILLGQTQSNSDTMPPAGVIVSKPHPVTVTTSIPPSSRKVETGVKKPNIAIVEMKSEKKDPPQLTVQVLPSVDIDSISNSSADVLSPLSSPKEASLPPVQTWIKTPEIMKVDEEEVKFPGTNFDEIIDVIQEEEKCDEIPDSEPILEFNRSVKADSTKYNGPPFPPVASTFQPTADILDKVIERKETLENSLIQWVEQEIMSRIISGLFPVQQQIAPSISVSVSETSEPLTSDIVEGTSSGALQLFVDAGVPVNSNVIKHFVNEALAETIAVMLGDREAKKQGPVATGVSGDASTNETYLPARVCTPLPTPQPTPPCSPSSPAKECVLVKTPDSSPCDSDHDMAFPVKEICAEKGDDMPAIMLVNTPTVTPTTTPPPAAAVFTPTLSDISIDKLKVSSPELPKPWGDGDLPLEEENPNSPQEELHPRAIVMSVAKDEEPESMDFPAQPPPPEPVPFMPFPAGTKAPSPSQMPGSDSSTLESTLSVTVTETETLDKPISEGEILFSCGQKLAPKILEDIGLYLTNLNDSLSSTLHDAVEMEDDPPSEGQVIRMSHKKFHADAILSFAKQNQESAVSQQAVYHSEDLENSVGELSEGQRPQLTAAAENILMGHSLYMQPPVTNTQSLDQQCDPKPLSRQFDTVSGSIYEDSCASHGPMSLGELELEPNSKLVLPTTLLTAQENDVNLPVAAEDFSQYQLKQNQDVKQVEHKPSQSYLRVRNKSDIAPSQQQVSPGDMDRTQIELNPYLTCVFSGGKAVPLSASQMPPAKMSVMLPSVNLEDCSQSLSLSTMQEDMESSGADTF
UniProt Q6TDP4, whole entry, looked up: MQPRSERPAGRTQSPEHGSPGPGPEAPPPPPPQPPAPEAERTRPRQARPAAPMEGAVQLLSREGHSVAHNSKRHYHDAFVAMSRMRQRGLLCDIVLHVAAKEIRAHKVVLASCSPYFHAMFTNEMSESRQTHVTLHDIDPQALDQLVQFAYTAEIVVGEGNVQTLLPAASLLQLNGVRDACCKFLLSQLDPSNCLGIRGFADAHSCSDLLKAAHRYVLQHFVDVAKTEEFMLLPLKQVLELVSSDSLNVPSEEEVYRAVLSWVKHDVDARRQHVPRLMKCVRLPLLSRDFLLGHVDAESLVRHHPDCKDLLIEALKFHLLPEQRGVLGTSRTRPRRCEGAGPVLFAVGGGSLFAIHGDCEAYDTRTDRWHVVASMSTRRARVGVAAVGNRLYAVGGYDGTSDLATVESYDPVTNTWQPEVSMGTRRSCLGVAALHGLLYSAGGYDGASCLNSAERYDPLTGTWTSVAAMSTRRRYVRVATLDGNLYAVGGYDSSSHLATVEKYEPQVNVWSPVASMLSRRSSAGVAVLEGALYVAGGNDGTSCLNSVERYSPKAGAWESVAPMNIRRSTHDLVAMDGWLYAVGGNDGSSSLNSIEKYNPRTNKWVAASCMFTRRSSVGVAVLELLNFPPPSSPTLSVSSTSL
UniProt P24043: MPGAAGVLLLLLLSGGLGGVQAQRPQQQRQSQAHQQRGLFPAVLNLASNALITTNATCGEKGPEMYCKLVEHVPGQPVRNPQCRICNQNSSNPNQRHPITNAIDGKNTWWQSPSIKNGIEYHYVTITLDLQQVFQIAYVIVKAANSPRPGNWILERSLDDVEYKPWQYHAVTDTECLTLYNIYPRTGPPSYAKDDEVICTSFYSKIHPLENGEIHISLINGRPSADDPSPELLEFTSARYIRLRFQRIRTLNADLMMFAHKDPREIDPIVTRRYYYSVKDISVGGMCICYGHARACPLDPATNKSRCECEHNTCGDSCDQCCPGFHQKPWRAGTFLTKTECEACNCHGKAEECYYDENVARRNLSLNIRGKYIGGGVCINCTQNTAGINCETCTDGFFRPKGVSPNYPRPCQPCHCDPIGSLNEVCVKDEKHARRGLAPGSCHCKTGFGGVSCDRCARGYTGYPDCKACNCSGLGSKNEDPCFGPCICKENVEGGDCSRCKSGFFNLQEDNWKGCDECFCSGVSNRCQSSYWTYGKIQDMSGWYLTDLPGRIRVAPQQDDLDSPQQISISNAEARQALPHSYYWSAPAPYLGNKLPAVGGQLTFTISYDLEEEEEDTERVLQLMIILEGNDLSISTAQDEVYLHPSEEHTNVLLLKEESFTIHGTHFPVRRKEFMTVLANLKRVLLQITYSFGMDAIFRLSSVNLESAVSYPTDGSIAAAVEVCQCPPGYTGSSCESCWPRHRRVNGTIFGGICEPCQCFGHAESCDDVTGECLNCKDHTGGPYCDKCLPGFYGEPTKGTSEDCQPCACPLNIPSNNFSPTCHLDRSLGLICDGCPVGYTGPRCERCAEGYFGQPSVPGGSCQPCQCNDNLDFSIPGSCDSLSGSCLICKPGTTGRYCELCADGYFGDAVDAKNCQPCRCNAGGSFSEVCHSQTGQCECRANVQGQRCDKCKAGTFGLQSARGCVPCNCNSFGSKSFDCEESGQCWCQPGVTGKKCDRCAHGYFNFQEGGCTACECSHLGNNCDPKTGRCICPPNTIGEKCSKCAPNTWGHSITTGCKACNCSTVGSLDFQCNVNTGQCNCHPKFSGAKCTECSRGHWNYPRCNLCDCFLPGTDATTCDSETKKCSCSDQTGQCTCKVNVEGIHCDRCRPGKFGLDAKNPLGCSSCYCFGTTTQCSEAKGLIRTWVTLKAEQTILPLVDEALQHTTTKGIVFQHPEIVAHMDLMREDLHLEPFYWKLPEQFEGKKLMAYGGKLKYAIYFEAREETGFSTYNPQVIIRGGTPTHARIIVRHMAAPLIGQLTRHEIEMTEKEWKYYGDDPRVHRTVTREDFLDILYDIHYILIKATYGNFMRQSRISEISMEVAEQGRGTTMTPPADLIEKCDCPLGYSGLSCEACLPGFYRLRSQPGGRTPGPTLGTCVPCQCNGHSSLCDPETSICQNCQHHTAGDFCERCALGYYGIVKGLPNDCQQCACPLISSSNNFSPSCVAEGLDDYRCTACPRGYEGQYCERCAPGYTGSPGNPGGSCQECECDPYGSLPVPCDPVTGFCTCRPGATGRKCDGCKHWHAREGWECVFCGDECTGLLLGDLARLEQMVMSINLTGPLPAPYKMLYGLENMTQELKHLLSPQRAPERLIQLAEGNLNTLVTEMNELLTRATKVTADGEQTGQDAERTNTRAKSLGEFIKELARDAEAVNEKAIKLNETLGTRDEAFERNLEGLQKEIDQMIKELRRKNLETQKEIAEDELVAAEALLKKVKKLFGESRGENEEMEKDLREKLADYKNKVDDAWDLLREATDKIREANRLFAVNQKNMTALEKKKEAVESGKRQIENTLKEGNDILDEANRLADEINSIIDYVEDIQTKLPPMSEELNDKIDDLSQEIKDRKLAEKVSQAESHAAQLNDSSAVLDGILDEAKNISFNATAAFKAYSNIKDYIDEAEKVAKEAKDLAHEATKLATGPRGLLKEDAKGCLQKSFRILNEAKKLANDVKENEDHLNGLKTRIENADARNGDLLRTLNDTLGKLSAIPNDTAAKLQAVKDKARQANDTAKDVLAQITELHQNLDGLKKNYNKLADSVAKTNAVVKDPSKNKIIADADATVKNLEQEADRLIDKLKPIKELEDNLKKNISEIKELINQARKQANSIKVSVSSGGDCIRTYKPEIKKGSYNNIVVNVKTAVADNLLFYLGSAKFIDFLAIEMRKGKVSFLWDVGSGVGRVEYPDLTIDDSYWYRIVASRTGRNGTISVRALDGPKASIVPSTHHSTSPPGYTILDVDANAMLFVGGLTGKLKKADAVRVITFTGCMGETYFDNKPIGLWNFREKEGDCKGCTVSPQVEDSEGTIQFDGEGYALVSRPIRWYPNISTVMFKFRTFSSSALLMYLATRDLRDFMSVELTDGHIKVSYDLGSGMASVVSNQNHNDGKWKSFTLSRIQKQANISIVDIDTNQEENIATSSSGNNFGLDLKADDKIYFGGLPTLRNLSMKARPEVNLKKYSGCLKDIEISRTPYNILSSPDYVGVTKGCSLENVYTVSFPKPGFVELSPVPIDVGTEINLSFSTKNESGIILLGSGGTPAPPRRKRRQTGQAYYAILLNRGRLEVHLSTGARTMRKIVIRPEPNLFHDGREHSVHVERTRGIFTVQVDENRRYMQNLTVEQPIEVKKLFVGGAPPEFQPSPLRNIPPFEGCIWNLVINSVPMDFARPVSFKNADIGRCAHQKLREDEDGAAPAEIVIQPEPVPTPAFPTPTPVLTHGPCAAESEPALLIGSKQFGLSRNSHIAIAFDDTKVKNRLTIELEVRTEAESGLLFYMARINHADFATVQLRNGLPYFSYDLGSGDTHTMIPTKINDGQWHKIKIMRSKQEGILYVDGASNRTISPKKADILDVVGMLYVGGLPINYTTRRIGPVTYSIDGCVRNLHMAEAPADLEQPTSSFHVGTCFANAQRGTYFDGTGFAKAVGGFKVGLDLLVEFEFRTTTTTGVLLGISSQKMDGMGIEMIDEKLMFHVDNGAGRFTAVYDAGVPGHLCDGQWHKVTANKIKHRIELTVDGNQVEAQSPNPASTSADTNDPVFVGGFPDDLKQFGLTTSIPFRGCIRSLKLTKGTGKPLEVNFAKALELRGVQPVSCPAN

Experiments:
Assay in all cases: log2 fold change, soluble protein after heating vs DMSO (PISA); higher = thermal stabilisation; K562 lysate, 10 uM; active = over 0.2 and 3.5 SD of the protein, either way, in both replicates (recomputed)
[1] = compound: NCC(=O)Nc1ccc(-n2nc(C(F)(F)F)cc2-c2ccc3c(ccc4ccccc43)c2)cc1
How it was run: (§1)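 Thermal stability, expressed as log-two fold change relative to solvent controls, is given from duplicates. Crude K562 extract in PBS pH 7.4 with 1 mM MgCl2, at 1 mg/mL protein, was treated with 10 μM compound for 30 min and heated in aliquots for 3 min across 48°C-58°C. After pooling, adjustment to 0.5% NP-40 at 4°C and centrifugation at 21,000xg for 90 min, supernatant protein was measured by TMTpro 16plex LC-MS/MS with channel sums equalised.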

[2] = compound: O=C1NC(=O)C(c2cnc3ccccn23)=C1c1cn2c3c(cc(F)cc13)CN(C(=O)N1CCCCC1)CC2
How it was run: as §1

[3] = compound: c1cn2cc(-c3ccc4cn[nH]c4c3)nc(Nc3ccc(N4CCOCC4)cc3)c2n1 [entospletinib]
How it was run: as §1

[4] = compound: O=C(CCCCCCC(=O)Nc1ccccc1)NO [vorinostat]
How it was run: as §1

[5] = compound: O=C(O)c1ccc2c(c1)nc(Nc1cccc(Cl)c1)c1ccncc12 [silmitasertib]
How it was run: as §1

Measured: log2 fold change

KIF20A (UniProt O95235)
inactive: [1] -0.033 | [2] 0.091 | [3] -0.142

KLF3 (UniProt P57682)
inactive: [2] -0.07 | [3] -0.186

LANCL3 (UniProt Q6ZV70)
inactive: [1] -0.042 | [3] -0.063

KIF1B isoform 3 (UniProt O60333)
inactive: [4] -0.305 | [5] 0.124 | [2] -0.027 | [3] -0.041

KRIT1 (UniProt O00522)
inactive: [1] -0.125 | [4] -0.046 | [5] -0.013 | [2] -0.02 | [3] 0.012

KIAA0586 isoform 3 (UniProt Q9BVV6)
inactive: [4] -0.081 | [5] -0.023 | [2] -0.352

KLHL17 (UniProt Q6TDP4)
inactive: [4] -0.141 | [5] -0.015 | [3] 0.149

LAMA2 (UniProt P24043)
inactive: [1] 0.12 | [4] 0.145 | [5] -0.018 | [3] -0.011
